According to the supplement of paper PMC10849652:
The list shows a part of the results.

By UniProt entry, the sequences of proteins in these tests, tags left out. Where a name states a change or a piece, a line headed by the entry shows the natural chain unless it says otherwise.
UniProt O15047, whole entry, looked up: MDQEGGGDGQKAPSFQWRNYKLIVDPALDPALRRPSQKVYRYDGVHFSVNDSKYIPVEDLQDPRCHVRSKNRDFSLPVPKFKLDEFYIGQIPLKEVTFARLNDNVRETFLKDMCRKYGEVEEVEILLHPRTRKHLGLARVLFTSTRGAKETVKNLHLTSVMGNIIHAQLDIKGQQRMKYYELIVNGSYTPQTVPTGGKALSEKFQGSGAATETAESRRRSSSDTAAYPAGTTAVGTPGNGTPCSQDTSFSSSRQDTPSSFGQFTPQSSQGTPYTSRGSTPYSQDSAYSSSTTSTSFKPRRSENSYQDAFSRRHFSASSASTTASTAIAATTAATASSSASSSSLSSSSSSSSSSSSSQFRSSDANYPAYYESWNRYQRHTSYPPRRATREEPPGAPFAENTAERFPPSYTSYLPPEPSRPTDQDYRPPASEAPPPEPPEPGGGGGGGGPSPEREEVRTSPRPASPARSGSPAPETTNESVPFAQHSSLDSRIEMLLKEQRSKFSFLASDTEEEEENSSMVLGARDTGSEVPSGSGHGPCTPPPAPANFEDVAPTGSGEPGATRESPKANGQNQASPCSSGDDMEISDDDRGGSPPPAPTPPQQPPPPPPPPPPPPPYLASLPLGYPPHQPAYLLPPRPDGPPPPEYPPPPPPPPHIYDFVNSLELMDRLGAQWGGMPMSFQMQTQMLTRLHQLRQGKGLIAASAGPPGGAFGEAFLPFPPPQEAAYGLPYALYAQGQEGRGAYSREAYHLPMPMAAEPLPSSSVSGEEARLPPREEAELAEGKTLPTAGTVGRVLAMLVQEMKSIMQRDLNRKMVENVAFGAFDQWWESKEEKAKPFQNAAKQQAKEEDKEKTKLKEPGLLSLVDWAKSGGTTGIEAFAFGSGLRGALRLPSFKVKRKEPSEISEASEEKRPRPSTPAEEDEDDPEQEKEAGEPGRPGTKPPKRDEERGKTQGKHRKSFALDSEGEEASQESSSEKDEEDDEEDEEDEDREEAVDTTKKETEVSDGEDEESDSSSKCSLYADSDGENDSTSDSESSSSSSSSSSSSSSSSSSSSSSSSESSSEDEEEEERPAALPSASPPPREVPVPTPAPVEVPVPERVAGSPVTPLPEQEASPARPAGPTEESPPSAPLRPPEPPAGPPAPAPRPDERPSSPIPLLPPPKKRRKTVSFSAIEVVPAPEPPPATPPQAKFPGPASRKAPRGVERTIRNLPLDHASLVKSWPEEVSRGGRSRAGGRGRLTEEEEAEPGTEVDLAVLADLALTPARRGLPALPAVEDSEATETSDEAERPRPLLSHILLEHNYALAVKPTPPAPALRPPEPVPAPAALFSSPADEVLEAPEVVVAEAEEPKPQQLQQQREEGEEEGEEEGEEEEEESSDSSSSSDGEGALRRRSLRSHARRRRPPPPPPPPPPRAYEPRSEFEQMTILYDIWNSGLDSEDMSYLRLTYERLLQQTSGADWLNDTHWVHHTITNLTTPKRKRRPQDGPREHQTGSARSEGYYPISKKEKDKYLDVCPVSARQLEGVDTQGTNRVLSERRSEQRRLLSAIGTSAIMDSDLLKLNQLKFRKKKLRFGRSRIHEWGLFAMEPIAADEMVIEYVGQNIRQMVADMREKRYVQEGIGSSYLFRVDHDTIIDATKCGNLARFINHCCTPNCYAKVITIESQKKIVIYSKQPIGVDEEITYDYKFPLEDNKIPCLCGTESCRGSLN
UniProt P29353: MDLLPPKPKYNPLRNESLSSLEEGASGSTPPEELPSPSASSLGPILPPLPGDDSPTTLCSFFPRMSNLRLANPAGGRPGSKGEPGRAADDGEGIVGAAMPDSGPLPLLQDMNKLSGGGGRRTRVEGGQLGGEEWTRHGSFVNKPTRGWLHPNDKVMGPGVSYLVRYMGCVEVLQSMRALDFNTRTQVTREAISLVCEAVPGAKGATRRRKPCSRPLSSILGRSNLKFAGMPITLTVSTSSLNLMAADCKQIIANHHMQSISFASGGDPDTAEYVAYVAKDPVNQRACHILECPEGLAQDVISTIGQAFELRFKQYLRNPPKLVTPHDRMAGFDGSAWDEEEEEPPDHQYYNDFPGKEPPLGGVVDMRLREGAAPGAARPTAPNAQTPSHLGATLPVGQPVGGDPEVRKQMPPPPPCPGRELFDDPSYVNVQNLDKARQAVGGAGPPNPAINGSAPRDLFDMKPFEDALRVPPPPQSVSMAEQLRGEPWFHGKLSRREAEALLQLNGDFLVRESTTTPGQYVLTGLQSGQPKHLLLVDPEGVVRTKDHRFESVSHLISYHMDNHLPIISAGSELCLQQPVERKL
UniProt P12755: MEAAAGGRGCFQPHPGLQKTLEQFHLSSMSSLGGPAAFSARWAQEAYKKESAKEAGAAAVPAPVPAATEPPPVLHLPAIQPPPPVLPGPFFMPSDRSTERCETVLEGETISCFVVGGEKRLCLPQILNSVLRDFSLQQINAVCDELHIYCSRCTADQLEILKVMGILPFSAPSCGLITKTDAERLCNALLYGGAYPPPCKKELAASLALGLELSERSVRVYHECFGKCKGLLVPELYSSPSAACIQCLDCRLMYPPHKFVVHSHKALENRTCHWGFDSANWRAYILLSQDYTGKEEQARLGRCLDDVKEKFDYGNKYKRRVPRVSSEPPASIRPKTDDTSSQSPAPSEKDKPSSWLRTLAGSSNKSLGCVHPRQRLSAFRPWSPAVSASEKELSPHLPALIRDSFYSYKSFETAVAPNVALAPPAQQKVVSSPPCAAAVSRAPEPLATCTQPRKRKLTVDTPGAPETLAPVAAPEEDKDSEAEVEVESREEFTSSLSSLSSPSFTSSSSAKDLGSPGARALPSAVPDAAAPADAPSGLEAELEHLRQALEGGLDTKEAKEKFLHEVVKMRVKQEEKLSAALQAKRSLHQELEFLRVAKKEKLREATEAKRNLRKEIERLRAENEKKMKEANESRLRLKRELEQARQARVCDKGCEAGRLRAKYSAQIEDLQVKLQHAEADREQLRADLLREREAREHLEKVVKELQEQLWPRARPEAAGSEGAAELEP
UniProt P50453: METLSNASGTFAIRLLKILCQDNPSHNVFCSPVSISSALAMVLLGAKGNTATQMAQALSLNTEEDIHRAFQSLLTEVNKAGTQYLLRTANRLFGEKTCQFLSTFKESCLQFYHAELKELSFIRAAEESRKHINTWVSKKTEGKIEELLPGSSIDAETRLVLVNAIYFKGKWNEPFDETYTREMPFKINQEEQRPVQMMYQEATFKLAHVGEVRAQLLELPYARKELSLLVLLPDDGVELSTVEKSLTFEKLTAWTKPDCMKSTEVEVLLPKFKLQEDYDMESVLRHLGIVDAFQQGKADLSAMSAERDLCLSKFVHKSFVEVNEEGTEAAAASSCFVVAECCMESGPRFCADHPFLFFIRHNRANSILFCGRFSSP
UniProt P41440: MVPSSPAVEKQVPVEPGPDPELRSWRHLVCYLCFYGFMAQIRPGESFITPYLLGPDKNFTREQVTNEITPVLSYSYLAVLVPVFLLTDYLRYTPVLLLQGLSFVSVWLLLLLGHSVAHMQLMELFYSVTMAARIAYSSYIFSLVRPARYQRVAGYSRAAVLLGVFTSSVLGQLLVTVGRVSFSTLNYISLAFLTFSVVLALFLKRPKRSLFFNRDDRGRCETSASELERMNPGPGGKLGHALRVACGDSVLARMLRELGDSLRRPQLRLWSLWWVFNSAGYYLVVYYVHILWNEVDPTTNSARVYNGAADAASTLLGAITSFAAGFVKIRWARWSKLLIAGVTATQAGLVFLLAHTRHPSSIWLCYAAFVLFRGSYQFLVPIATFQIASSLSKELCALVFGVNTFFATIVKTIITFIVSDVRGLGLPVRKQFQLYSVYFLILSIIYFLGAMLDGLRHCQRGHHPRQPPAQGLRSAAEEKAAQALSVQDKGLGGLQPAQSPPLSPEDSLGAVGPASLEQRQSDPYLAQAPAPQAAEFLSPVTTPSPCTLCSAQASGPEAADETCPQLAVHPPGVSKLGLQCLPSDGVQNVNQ
UniProt Q9BX95: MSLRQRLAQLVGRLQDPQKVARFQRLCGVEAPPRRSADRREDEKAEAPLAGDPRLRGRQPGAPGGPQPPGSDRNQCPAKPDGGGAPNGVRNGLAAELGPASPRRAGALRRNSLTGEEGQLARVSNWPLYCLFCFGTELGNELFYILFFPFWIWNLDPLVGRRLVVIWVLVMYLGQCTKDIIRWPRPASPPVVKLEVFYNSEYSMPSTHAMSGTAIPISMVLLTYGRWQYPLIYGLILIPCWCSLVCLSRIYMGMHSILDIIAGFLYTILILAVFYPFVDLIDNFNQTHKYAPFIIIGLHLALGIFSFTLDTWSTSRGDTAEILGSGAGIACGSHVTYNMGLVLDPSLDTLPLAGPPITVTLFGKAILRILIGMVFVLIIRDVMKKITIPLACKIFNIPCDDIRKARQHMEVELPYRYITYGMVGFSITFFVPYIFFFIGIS
UniProt Q12874: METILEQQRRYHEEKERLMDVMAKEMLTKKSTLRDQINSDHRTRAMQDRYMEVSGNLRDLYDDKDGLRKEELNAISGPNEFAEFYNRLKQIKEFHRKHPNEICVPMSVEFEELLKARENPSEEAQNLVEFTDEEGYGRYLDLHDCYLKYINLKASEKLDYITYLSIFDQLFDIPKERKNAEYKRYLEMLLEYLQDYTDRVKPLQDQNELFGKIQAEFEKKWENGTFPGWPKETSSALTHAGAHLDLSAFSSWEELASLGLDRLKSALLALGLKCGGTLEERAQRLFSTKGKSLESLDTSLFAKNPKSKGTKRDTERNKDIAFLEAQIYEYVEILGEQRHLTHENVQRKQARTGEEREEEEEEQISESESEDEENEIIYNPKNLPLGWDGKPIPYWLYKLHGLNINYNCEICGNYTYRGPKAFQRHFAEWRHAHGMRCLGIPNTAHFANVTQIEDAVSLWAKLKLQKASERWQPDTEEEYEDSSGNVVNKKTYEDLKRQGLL
UniProt P51688: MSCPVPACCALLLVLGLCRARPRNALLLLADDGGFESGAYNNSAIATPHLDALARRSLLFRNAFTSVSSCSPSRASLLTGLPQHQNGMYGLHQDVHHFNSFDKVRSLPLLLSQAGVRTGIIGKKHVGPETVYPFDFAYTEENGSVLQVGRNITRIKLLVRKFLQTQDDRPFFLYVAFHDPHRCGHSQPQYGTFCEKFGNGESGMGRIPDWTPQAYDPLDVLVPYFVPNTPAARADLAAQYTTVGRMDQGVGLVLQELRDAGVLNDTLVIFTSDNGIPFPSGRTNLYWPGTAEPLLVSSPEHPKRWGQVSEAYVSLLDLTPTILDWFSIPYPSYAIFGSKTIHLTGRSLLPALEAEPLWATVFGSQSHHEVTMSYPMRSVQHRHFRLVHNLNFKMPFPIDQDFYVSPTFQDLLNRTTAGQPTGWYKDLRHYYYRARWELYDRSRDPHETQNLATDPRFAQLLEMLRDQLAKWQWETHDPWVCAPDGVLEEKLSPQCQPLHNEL
UniProt Q8WVK7: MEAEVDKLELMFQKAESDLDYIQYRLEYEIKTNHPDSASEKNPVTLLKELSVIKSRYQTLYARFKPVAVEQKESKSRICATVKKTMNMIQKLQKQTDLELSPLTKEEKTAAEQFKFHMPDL
UniProt P50454: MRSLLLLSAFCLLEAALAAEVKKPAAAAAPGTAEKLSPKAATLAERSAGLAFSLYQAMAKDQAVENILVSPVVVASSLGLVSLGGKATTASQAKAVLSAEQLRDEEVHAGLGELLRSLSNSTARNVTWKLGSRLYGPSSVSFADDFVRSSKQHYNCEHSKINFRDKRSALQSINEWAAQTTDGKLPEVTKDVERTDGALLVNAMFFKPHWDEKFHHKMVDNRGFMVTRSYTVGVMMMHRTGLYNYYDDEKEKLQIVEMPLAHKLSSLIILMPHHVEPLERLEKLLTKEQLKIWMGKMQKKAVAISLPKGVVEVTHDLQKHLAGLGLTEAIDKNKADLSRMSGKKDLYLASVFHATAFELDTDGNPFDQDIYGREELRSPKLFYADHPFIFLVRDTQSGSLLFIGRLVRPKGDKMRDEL
UniProt Q9UQ13: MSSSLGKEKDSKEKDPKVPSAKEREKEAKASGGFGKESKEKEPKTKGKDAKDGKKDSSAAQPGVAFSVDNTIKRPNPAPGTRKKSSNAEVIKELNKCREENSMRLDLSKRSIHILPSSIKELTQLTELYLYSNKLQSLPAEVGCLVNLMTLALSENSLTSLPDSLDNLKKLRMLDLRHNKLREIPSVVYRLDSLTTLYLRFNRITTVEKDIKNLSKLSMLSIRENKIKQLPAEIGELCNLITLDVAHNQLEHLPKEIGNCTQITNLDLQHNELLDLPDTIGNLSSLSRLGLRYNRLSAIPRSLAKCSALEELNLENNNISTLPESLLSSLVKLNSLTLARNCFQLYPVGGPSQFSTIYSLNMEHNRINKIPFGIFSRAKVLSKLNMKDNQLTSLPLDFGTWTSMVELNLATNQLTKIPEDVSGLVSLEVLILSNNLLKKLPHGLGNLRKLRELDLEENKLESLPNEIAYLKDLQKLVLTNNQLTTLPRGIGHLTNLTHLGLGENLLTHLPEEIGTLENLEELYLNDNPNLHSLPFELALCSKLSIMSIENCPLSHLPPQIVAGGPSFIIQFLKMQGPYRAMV

Assays:
Test in all cases: log2 fold change, soluble protein after heating vs DMSO (PISA); higher = thermal stabilisation; K562 lysate, 10 uM; active = over 0.2 and 3.5 SD of the protein, either way, in both replicates (recomputed)
alvocidib = compound: CN1CC[C@H](c2c(O)cc(O)c3c(=O)cc(-c4ccccc4Cl)oc23)[C@H](O)C1 [alvocidib]
Procedure, shortened: (§1)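 Dounce homogenisation of K562 pellets in PBS pH 7.4 with 1 mM MgCl2 produced a crude extract, used at 1 mg/mL protein. Exposure to 10 μM compound lasted 30 min, and aliquots were then heated for 3 min across 48°C-58°C, pooled and brought to 0.5% NP-40 at 4°C. The supernatant after 21,000xg for 90 min was quantified by TMTpro 16plex LC-MS/MS with channel sums equalised. Duplicate values are given as log-two fold change in thermal stability relative to solvent controls.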

Tubastatin A = compound: CN1CCc2c(c3ccccc3n2Cc2ccc(C(=O)NO)cc2)C1 [Tubastatin A]
Procedure, shortened: as §1

[1] = compound: CNC(=O)C1=CC=CC=C1NC2=NC(=NC=C2Cl)NC3=C(C=C(C=C3)N4CCOCC4)OC
Procedure, shortened: as §1

defactinib = compound: CNC(=O)c1ccc(Nc2ncc(C(F)(F)F)c(NCc3nccnc3N(C)S(C)(=O)=O)n2)cc1 [defactinib]
Procedure, shortened: as §1

[2] = compound: CNc1nc(-c2ccc3c(N)n[nH]c3c2)cc(N2C[C@@H](C(=O)NC3CCCCC3)CC[C@H]2C)n1
Procedure, shortened: as §1

encorafenib = compound: COC(=O)N[C@@H](C)CNc1nccc(-c2cn(C(C)C)nc2-c2cc(Cl)cc(NS(C)(=O)=O)c2F)n1 [encorafenib]
Procedure, shortened: as §1

[3] = compound: COC(=O)[C@H](CCSC)NC(=O)C1=C(C=C(C=C1)NC[C@H](CS)N)C2=CC=CC=C2
Procedure, shortened: as §1

alisertib = compound: COc1cc(Nc2ncc3c(n2)-c2ccc(Cl)cc2C(c2c(F)cccc2OC)=NC3)ccc1C(=O)O [alisertib]
Procedure, shortened: as §1

[4] = compound: COc1cc2nc(-c3cc(F)ccc3O)nc(N[C@@H]3CNC[C@H]3C(C)(C)O)c2cc1OC
Procedure, shortened: as §1

gefitinib = compound: COc1cc2ncnc(Nc3ccc(F)c(Cl)c3)c2cc1OCCCN1CCOCC1 [gefitinib]
Procedure, shortened: as §1

Measured: log2 fold change

SIRT5 (UniProt Q9NXA8)
inactive: alvocidib 0.022 | Tubastatin A -0.02 | [1] 0.013 | defactinib -0.074 | [2] -0.081 | encorafenib 0.027 | [3] 0.041 | alisertib 0.063 | [4] 0.009 | gefitinib -0.111

SFSWAP isoform 2 (UniProt Q12872)
inactive: alvocidib -0.152 | Tubastatin A 0.01 | [1] -0.036 | defactinib 0.011 | [2] 0.092 | encorafenib 0.059 | [3] -0.026 | alisertib -0.059 | [4] 0.039 | gefitinib -0.043

SIRT6 (UniProt Q8N6T7)
inactive: alvocidib 0.057 | Tubastatin A 0.135 | [1] 0.029 | defactinib 0.045 | [2] 0.012 | encorafenib -0.002 | [3] 0.149 | alisertib -0.071 | [4] 0.031 | gefitinib 0.071

SETD1A (UniProt O15047)
inactive: alvocidib -0.001 | Tubastatin A 0.05 | [1] 0.017 | defactinib 0.02 | [2] 0.014 | encorafenib 0.012 | [3] 0.094 | alisertib -0.023 | [4] -0.001 | gefitinib -0.014

SHC1 isoform 6 (UniProt P29353)
inactive: alvocidib 0.186 | Tubastatin A 0.035 | [1] 0.001 | defactinib -0.031 | [2] 0.086 | encorafenib 0.15 | [3] -0.078 | alisertib -0.008 | [4] -0.014 | gefitinib -0.035

SKI (UniProt P12755)
inactive: alvocidib 0.044

SETDB1 (UniProt Q15047)
inactive: alvocidib -0.085 | Tubastatin A 0.077 | [1] -0.021 | defactinib -0.057 | [2] -0.005 | encorafenib -0.03 | [3] 0.04 | alisertib -0.001 | [4] 0.121 | gefitinib 0.075

SERPINB9 (UniProt P50453)
inactive: alvocidib 0.01 | Tubastatin A 0.025 | [1] -0.012 | defactinib -0.028 | [2] -0.003 | encorafenib -0.062 | [3] -0.007 | alisertib -0.013 | [4] 0.004 | gefitinib -0.009

SF3A2 (UniProt Q15428)
inactive: alvocidib 0.014 | Tubastatin A -0.011 | [1] -0.01 | defactinib 0.003 | [2] -0.023 | encorafenib 0.01 | [3] 0.042 | alisertib 0.003 | [4] 0.012 | gefitinib -0.022

SLC19A1 (UniProt P41440)
inactive: alvocidib -0.106 | Tubastatin A 0.047 | [1] 0.025 | defactinib 0.01 | [2] 0.037 | encorafenib 0.011 | [3] -0.018 | alisertib -0.005 | [4] 0.039 | gefitinib 0.026

Two entries picked at random from the list so far:
SF3A2 (UniProt Q15428)
inactive: alvocidib 0.014 | Tubastatin A -0.011 | [1] -0.01 | defactinib 0.003 | [2] -0.023 | encorafenib 0.01 | [3] 0.042 | alisertib 0.003 | [4] 0.012 | gefitinib -0.022

SETDB1 (UniProt Q15047)
inactive: alvocidib -0.085 | Tubastatin A 0.077 | [1] -0.021 | defactinib -0.057 | [2] -0.005 | encorafenib -0.03 | [3] 0.04 | alisertib -0.001 | [4] 0.121 | gefitinib 0.075

Next part.

SERPINI1 (UniProt Q99574)
inactive: alvocidib -0.031 | Tubastatin A 0.015 | [1] -0.001 | defactinib 0.019 | [2] -0.042 | encorafenib 0.02 | [3] -0.074 | alisertib -0.064 | [4] 0.013 | gefitinib 0.048

SF3B1 (UniProt O75533)
inactive: alvocidib -0.004 | Tubastatin A -0.047 | [1] 0.012 | defactinib -0.018 | [2] -0.015 | encorafenib 0.005 | [3] 0.075 | alisertib 0.022 | [4] -0.013 | gefitinib -0.025

SGPP1 (UniProt Q9BX95)
inactive: alvocidib -0.007 | Tubastatin A -0.175 | [1] 0.035 | defactinib 0.036 | [2] -0.019 | encorafenib 0.146 | [3] -0.005 | alisertib -0.045 | [4] 0.003 | gefitinib 0.006

SF3A3 (UniProt Q12874)
inactive: alvocidib 0.042 | Tubastatin A -0.154 | [1] -0.023 | defactinib -0.024 | [2] -0.118 | encorafenib 0.005 | [3] 0.098 | alisertib 0.014 | [4] -0.012 | gefitinib 0.017

SKP1 (UniProt P63208)
inactive: alvocidib 0.009 | Tubastatin A 0.047 | [1] -0.005 | defactinib 0.008 | [2] -0.009 | encorafenib -0.007 | [3] -0.15 | alisertib 0.005 | [4] 0.008 | gefitinib 0.01

SGSH (UniProt P51688)
inactive: alvocidib -0.039

SH2D2A isoform 2 (UniProt Q9NP31)
inactive: alvocidib -0.025 | Tubastatin A 0.016 | [1] 0.087 | defactinib -0.019 | [2] 0.044 | encorafenib 0.001 | [3] 0.188 | alisertib 0.102 | [4] 0.025 | gefitinib 0.104

SH3BP5L (UniProt Q7L8J4)
inactive: alvocidib -0.003 | Tubastatin A -0.012 | [1] 0.036 | defactinib -0.003 | [2] -0.015 | encorafenib 0.058 | [3] -0.047 | alisertib 0.021 | [4] 0.015 | gefitinib 0.001

SLC1A4 (UniProt P43007)
inactive: alvocidib -0.039 | Tubastatin A -0.008 | [1] -0.015 | defactinib -0.013 | [2] 0.064 | encorafenib 0.029 | [3] -0.036 | alisertib -0.012 | [4] 0.027 | gefitinib 0.04

SH3BGRL2 (UniProt Q9UJC5)
inactive: alvocidib 0.067 | Tubastatin A 0.031 | [1] 0.05 | defactinib 0.039 | [2] 0.061 | encorafenib -0.066 | [3] 0.027 | alisertib -0.013 | [4] -0.001 | gefitinib -0.001

SH3GL3 isoform 3 (UniProt Q99963)
inactive: alvocidib -0.263 | Tubastatin A -0.14 | [1] 0.024 | defactinib -0.063 | [2] 0.15 | encorafenib 0.072 | [3] -0.041 | alisertib -0.076 | [4] 0.09 | gefitinib 0.041

SERPINF1 (UniProt P36955)
inactive: alvocidib 0.021 | Tubastatin A 0.023 | [1] 0.041 | defactinib -0.069 | [2] -0.07 | encorafenib 0.001 | [3] -0.045 | alisertib 0.004 | [4] 0.031 | gefitinib 0.019

SHC1 (UniProt P29353)
inactive: alvocidib 0.144

SLC16A1 (UniProt P53985)
inactive: alvocidib -0.133 | Tubastatin A -0.012 | [1] 0.042 | defactinib -0.007 | [2] 0.024 | encorafenib -0.016 | [3] -0.059 | alisertib 0.045 | [4] 0.018 | gefitinib 0.032

SETMAR (UniProt Q53H47)
inactive: alvocidib -0.027 | Tubastatin A 0.026 | [1] -0.004 | defactinib 0.003 | [2] -0.008 | encorafenib -0.246 | [3] 0.018 | alisertib -0.014 | [4] 0.007 | gefitinib -0.001

SKA2 (UniProt Q8WVK7)
inactive: alvocidib 0.003 | Tubastatin A -0.119 | [1] -0.077 | defactinib -0.014 | [2] -0.02 | encorafenib 0.032 | [3] -0.001 | alisertib 0.036 | [4] -0.009 | gefitinib 0.006

SGO1 (UniProt Q5FBB7)
inactive: alvocidib -0.011 | Tubastatin A -0.038 | [1] -0.053 | defactinib -0.01 | [2] 0.017 | encorafenib -0.01 | [3] -0.019 | alisertib 0.116 | [4] -0.014 | gefitinib 0.01

SERPINH1 (UniProt P50454)
inactive: alvocidib -0.014 | Tubastatin A 0.064 | [1] -0.019 | defactinib -0.01 | [2] 0.033 | encorafenib -0.02 | [3] 0.009 | alisertib 0.002 | [4] 0.026 | gefitinib -0.003

SHOC2 (UniProt Q9UQ13)
inactive: alvocidib -0.032 | Tubastatin A -0.012 | [1] -0.01 | defactinib -0.019 | [2] 0.019 | encorafenib -0.014 | [3] 0.019 | alisertib 0.076 | [4] 0.007 | gefitinib 0.032

SHCBP1 (UniProt Q8NEM2)
inactive: alvocidib 0.001 | Tubastatin A -0.122 | [1] -0.043 | defactinib 0.012 | [2] -0.084 | encorafenib 0.049 | [3] -0.003 | alisertib 0.088 | [4] -0.015 | gefitinib 0.055

SGTA (UniProt O43765)
inactive: alvocidib 0.004 | Tubastatin A 0.013 | [1] 0.001 | defactinib -0.009 | [2] -0.026 | encorafenib -0.021 | [3] -0.001 | alisertib 0.01 | [4] -0.001 | gefitinib -0.02

SLAIN2 (UniProt Q9P270)
inactive: alvocidib -0.051 | Tubastatin A -0.013 | [1] 0.06 | defactinib 0.003 | [2] 0.025 | encorafenib 0.041 | [3] -0.128 | alisertib 0.043 | [4] -0.001 | gefitinib -0.008
